Test results published in the M2OR odorant receptor database.
This is a selection; strong and weak results do not stand in their true shares. Calls are pooled over several reports, among them a noisy single-well screen. The list shows a part of the results.

Tests used:
Conditions in all cases: stereoisomer not certain
OR6M1 (Homo sapiens) = target: T1, OR6M1 (Homo sapiens) (UniProt Q8NGM8)
T1 sequence (whole entry): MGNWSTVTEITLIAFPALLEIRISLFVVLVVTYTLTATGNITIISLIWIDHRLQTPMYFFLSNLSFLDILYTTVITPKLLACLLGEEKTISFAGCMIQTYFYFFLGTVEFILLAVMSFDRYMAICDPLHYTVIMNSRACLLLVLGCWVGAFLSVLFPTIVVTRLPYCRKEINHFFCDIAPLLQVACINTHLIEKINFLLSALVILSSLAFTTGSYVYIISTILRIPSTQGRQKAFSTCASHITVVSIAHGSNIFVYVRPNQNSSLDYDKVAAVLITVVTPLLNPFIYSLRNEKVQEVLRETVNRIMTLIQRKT
How it was run: (§1)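 Each entry records the cell line, G-protein, co-transfected protein and tags used. Methods varied with the source, often transient luciferase assays in mammalian cell lines. A receptor–molecule pair is called responsive (active) if the original authors judged its signal statistically different from baseline and non-responsive (inactive) otherwise.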

OR6N1 = system: T2, OR6N1
T2 sequence (whole entry): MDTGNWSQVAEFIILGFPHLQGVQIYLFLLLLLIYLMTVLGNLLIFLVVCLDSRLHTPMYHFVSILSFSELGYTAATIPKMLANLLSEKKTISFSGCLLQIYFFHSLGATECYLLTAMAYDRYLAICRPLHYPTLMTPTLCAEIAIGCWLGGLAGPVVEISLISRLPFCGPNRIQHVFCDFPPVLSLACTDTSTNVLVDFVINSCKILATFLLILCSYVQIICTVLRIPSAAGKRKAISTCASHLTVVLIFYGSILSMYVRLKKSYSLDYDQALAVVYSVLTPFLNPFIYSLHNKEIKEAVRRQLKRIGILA
How it was run: as §1

OR6N2 (Homo sapiens) = target: T3, OR6N2 (Homo sapiens) (UniProt Q8NGY6)
T3 sequence (whole entry): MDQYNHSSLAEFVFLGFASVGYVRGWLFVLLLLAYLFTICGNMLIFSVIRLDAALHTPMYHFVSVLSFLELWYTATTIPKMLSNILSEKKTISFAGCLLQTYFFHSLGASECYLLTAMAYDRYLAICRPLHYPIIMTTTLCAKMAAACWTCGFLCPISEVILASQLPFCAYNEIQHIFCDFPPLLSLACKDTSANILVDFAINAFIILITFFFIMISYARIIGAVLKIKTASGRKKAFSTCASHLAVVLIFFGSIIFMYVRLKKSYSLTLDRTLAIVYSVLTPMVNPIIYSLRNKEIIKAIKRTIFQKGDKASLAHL
How it was run: as §1

OR6P1 (Homo sapiens) = target: T4, OR6P1 (Homo sapiens) (UniProt Q8NGX9)
T4 sequence (whole entry): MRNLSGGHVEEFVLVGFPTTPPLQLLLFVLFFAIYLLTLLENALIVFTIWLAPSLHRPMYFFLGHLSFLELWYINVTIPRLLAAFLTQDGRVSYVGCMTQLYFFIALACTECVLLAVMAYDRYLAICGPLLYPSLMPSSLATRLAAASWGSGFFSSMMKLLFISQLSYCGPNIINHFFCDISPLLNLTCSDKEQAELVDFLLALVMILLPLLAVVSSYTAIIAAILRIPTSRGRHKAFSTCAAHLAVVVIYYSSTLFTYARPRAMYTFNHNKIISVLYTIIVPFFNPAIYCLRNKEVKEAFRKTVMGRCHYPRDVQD
How it was run: as §1

OR6Q1 (Homo sapiens) = target: T5, OR6Q1 (Homo sapiens) (UniProt Q8NGQ2)
T5 sequence (whole entry): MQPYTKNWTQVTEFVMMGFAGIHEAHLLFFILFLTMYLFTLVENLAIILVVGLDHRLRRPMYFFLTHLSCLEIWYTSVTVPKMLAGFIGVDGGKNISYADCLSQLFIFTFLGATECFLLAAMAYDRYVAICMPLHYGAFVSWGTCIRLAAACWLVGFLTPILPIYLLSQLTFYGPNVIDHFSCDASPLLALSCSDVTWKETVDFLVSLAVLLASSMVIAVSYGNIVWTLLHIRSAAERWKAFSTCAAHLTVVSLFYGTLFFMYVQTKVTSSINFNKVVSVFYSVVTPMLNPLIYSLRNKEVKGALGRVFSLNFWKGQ
How it was run: as §1

OR6S1 = system: T6, OR6S1
T6 sequence (whole entry): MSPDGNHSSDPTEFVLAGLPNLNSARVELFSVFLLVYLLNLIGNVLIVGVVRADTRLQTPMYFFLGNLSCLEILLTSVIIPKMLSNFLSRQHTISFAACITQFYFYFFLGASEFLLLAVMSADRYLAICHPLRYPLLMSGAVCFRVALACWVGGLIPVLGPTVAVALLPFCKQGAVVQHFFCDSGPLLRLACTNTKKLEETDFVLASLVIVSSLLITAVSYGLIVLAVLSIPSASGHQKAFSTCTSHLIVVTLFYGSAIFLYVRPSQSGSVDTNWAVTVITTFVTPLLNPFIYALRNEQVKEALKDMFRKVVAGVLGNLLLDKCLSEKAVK
How it was run: as §1

OR6T1 = system: T7, OR6T1
T7 sequence (whole entry): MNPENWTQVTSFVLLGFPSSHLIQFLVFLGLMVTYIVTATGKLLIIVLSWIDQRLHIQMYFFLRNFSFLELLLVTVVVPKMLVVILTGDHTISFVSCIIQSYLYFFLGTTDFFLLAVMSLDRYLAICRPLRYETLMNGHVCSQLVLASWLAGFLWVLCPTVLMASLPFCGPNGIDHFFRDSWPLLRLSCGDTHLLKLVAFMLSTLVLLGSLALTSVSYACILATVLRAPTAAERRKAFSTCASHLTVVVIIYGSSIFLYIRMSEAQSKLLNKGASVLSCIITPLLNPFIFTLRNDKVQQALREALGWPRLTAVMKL
How it was run: as §1

OR6V1 (Homo sapiens) = target: T8, OR6V1 (Homo sapiens) (UniProt Q8N148)
T8 sequence (whole entry): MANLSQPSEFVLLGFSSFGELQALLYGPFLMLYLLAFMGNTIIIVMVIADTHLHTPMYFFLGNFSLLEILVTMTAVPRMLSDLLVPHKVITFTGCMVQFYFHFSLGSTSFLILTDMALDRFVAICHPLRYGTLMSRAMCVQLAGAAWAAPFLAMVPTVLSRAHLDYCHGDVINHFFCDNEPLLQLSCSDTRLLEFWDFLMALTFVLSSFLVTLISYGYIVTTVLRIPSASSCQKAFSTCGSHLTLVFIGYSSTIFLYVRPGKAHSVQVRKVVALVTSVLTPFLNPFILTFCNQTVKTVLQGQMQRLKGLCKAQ
How it was run: as §1

OR6X1 (Homo sapiens) = target: T9, OR6X1 (Homo sapiens) (UniProt Q8NH79)
T9 sequence (whole entry): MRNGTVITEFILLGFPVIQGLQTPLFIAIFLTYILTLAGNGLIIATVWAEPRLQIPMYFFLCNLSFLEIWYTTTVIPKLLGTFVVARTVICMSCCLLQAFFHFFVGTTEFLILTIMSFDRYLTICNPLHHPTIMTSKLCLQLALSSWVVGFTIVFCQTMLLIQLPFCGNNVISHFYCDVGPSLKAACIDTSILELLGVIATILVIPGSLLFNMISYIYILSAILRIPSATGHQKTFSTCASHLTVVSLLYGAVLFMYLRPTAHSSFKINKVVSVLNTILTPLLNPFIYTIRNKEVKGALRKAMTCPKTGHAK
How it was run: as §1

OR6Y1 = system: T10, OR6Y1
T10 sequence (whole entry): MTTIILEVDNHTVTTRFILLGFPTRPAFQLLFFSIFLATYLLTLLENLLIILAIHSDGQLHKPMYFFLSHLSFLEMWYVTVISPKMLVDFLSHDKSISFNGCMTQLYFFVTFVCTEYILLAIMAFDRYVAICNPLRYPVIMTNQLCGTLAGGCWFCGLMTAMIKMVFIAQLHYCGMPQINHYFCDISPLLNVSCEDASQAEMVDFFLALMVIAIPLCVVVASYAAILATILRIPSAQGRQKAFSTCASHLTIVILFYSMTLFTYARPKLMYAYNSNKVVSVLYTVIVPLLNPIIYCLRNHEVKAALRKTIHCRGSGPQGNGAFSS
How it was run: as §1

OR7A10 (Homo sapiens) = target: T11, OR7A10 (Homo sapiens) (UniProt O76100)
T11 sequence (whole entry): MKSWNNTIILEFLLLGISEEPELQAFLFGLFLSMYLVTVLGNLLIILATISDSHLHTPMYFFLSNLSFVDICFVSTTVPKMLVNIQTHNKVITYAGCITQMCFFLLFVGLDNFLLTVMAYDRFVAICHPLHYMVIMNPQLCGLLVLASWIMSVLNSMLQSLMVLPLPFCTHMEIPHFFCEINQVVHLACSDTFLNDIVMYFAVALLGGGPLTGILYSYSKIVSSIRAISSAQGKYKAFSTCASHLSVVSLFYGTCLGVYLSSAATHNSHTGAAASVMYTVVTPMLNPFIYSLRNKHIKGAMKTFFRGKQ
How it was run: as §1

OR7A17 (Homo sapiens) = target: T12, OR7A17 (Homo sapiens) (UniProt O14581)
T12 sequence (whole entry): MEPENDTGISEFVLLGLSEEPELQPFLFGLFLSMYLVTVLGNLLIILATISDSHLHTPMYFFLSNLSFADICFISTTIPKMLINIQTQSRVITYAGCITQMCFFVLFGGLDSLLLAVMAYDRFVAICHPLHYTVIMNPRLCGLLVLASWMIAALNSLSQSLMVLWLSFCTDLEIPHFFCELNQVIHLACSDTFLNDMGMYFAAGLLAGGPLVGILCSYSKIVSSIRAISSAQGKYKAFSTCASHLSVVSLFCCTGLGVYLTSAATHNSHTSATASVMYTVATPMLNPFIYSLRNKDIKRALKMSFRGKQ
How it was run: as §1

OR7A5 (Homo sapiens) = target: T13, OR7A5 (Homo sapiens) (UniProt Q15622)
T13 sequence (whole entry): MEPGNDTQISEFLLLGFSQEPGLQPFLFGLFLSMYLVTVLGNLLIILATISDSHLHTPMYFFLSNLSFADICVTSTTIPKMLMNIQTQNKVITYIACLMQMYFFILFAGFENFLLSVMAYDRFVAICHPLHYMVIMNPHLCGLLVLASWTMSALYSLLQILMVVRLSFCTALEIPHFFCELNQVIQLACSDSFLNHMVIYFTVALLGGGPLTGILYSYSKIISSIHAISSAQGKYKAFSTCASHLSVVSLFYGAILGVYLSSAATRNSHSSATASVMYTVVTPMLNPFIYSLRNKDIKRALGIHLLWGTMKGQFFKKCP
How it was run: as §1

OR7C1 = system: T14, OR7C1
T14 sequence (whole entry): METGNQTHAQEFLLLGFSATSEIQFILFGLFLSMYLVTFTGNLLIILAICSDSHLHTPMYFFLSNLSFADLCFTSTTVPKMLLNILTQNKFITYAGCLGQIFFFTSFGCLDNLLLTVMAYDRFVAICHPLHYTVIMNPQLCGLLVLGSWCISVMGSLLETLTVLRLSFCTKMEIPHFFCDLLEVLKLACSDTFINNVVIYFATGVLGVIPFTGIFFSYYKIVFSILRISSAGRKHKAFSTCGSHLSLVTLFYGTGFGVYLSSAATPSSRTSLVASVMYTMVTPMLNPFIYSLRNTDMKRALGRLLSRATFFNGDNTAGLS
How it was run: as §1

Measured: odorant receptor agonist call

c1cnccn1
inactive: all assays above

CC(C)C(=O)O
inactive: all assays above

c1ccc(Oc2ccccc2)cc1
inactive: all assays above

C=CC(C)(O)CCC=C(C)C (stereo not drawn)
inactive: all assays above

CC(=O)OCC=C(C)CCC=C(C)C
active: OR6X1 (Homo sapiens)
inactive: all other assays above

CCCCCCCC=O
inactive: all assays above

CC1=CCC(C(C)(C)O)CC1 (stereo not drawn)
active: OR6X1 (Homo sapiens)
inactive: all other assays above

COc1cc(C=O)ccc1O
inactive: all assays above

CCC1(O)C2(C)CCC(C2)C1(C)C (stereo not drawn)
inactive: all assays above

COc1ccccc1O
inactive: all assays above

CC(C)(C)c1ccc(CCC=O)cc1
inactive: all assays above

O=C1CCCCCCCCCCCC(=O)OCCO1
inactive: all assays above
